Experimental data from article PMC12255046.
No constants are given. Whether binding was seen depends on the method and setting. Binding seen in cells or lysates may run through a third protein. Some entries that bind do so weakly or less than the wild type.

The chains behind the UniProt entries cited, without tags or fusion partners.
UniProt Q07157: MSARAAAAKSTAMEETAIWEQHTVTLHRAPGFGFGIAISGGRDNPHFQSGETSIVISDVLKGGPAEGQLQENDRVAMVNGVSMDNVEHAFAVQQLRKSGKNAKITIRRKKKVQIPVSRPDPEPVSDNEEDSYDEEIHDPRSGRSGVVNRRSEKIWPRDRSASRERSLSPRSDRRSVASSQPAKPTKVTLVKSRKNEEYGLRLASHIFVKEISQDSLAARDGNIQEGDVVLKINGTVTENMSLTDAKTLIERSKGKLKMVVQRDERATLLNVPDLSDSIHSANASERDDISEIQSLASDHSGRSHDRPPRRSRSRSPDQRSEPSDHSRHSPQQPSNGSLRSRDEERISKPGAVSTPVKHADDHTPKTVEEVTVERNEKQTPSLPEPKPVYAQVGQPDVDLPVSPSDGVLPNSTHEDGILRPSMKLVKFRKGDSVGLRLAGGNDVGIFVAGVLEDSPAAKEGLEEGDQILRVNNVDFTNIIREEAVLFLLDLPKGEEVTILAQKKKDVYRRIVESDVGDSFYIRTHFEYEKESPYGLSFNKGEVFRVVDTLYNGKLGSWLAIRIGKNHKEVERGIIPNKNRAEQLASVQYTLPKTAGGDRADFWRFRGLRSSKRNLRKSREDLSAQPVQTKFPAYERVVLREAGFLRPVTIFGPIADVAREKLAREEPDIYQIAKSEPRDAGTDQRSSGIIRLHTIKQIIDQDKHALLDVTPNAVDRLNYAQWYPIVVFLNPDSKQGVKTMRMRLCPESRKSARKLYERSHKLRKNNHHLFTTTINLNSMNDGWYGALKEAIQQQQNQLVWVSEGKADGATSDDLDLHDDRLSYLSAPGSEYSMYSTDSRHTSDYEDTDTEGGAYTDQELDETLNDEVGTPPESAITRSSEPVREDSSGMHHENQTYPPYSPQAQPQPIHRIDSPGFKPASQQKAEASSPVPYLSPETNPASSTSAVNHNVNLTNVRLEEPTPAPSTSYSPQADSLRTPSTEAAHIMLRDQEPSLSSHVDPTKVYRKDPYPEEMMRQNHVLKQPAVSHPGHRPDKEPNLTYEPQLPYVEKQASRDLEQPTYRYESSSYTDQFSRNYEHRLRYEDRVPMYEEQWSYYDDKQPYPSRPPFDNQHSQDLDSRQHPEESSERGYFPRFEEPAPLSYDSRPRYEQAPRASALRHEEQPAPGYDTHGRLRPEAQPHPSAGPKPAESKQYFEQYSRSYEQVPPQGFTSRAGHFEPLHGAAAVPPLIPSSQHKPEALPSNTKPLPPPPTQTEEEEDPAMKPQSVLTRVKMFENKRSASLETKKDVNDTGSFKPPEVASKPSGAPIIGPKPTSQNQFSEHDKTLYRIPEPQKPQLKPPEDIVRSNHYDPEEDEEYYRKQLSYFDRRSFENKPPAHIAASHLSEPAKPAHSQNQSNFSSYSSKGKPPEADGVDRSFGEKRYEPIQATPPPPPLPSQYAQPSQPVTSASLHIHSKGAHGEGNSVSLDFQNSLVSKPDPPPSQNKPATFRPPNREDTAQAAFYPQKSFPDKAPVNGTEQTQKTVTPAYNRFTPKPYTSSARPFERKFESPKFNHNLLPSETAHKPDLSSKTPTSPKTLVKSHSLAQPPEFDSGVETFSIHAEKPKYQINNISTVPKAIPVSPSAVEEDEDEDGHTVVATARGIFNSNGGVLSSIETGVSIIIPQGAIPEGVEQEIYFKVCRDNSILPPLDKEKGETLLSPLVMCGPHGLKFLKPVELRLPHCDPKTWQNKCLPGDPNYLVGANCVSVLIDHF
UniProt P0DTC4: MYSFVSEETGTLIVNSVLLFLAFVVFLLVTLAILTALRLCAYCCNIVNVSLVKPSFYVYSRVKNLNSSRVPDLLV

Target: GFP-tagged ZO-1 full-length protein (UniProt Q07157)
Assay: pull-down; only the target purified

With “SARS-CoV-2 Envelope (E) protein, wild type, produced by the recombinant virus rSARS-CoV2-E-WT (from UniProt P0DTC4 1-75)” the binding was “binds”.
